Data source: PubChem BioAssay AID1159578 (Peter MacCallum Cancer Centre, 2015)

Test: 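Genome-wide hunt for genes controlling movement of lymphatic endothelial cells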 (primary screen)
Cell system: human lymphatic endothelial cells
Reagents: siRNA pool against human genes, 40 nM
Duration: 48 h after transfection
Read-out: 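High-content imaging of dye-stained cells in a scratch assay measures filled wound area and nuclei per well; duplicate means given as ratio to mock and robust z-score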
Reading the numbers: migration robust z-score: higher = faster migration into the scratch; nuclei per well: higher = more cells in the well
Rule for the call: 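Pools averaging fewer than 3300 nuclei are never called; remaining pools count as changed when migration robust z lies outside -2 to 2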
Meaning of the calls: active = migration changed; inactive = no migration change, or too few cells
The deposit covers about 18,000 reagents; this is an unselected part. In the full data, about 1,030 (5.7%) are marked active. 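Inactive calls also include pools with fewer than 3300 nuclei, whose migration was not assessed.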 The raw values are shown without normalisation. A number with no mark means an inactive call. The numbers tell different reagents against one gene apart. Not all columns of the deposit are shown.

Gene	reagent no.	migration robust z-score	nuclei per well, duplicate mean
SLC22A25	1	-2.96 (active)	4091
GNAT2	1	-1.25	4920
LCN6	1	-0.37	6205
SRSF10	1	1.18	5986
INSYN2A	1	-1.06	5568
IGFN1	1	0.66	5416
PCYOX1	1	0.52	6116
HSPA1A	1	-0.31	4962
HS3ST2	1	1.71	6734
PLAAT5	1	-0.28	5302
EIF3B	1	0.05	6548
ADIPOR2	1	0.46	5438
PINX1	1	0.36	5708
ABCA5	1	0.4	7032
QPCTL	1	-1.63	6047
SRPX	1	0.91	5626
AMHR2	1	-2.86 (active)	3332
MAD2L2	1	-1.3	4362
TRIM73	1	-1.04	5602
RUSC1-AS1	1	-0.02	5576
EFHD1	1	1.33	6609
CARMIL1	1	-1.14	5304
CMBL	1	0.52	5237
SLC31A1	1	-2.18 (active)	4162
CPN1	1	0.96	7280
FPGS	1	0.96	4477
FRMD5	1	-0.16	6366
UGT1A4	1	-0.05	5018
ZNF833P	1	0.56	5174
NAPSA	1	-0.08	8676
AURKC	1	-1.46	4634
SCGB3A1	1	-1.36	5698
SH3BP4	1	0.14	5116
CCDC63	1	1.15	5395
NAPA	1	-0.71	5320
GNL2	1	-0.52	4790
CYBB	1	-0.42	4268
PDCD2L	1	-0.72	6712
TATDN2	1	1.87	5678
TMEM74	1	-2.14 (active)	3397
WNK1	1	0.16	5836
WNK1	2	-1.77	4158
TIMP1	1	0.23	5187
HSPA8	1	-0.24	5804
FAM174A	1	0.26	6365
SAA4	1	0.7	7420
ZNF143	1	1.55	6694
SLC16A11	1	0.44	5278
SRF	1	0.36	4576
MUSTN1	1	-0.82	5380
CD53	1	-1.98	6209
CCDC70	1	-2.21 (active)	4826
DHRS2	1	0.52	5232
P2RX1	1	-1.5	5396
TMBIM4	1	0.5	5731
CFC1	1	1	6104
CERS1	1	-1.34	5406

4 of these entries, set out differently.
CPN1
- migration robust z-score: 0.96
- nuclei per well, duplicate mean: 7280

FPGS
- migration robust z-score: 0.96
- nuclei per well, duplicate mean: 4477

FRMD5
- migration robust z-score: -0.16
- nuclei per well, duplicate mean: 6366

UGT1A4
- migration robust z-score: -0.05
- nuclei per well, duplicate mean: 5018
